# From PMC8210600
# Amino acid sequences for entries named in this document (tags omitted).
# UniProt Q15717: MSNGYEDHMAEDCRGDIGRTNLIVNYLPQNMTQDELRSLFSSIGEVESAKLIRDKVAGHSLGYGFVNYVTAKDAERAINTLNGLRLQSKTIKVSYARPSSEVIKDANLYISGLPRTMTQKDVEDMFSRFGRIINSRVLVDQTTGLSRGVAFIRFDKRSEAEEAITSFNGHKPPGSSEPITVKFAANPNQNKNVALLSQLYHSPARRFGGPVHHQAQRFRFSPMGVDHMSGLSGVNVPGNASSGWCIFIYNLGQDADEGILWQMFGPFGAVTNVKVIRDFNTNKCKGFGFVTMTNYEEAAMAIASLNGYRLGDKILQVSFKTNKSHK
# UniProt Q9Y297: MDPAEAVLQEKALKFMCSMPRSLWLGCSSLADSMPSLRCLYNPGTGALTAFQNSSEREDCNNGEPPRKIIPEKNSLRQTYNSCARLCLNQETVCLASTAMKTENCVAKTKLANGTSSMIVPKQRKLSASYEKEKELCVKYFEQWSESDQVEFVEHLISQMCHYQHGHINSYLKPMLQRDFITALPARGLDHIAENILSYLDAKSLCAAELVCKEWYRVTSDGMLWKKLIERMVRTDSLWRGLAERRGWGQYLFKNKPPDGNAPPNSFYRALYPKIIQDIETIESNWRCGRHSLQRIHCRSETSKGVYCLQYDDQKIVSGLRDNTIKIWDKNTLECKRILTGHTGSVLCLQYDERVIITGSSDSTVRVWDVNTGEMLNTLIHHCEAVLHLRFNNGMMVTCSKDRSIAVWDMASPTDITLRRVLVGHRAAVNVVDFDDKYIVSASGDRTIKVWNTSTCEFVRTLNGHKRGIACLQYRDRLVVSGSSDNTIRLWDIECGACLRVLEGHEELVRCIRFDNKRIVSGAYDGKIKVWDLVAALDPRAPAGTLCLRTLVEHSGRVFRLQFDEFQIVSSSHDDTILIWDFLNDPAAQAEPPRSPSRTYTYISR
# These are yes or no findings as the source states them, for the method shown. In cells and extracts the contact can be indirect. Some results given as binding are weak or reduced against the parent protein; the word gives no strength.
# Target: human antigen R (HuR) (human (endogenous in HCT116)) (UniProt Q15717)
# Assay: co-IP; endogenous proteins of HCT116 cells transfected with N.C or circRHOBTB3 overexpression plasmid; anti-HuR and anti-βTrCP antibodies, Protein-A/G MagBeads, Western blotting
substance,measurement,value
E3 ubiquitin ligase β-Trcp1 (from UniProt Q9Y297 1-605),binding,binds
